Assay results taken from the supplement of paper PMC10849652.
This is one part of the list.

Amino acid sequences for entries named in this document (tags omitted). A change or cut given only in a name is not applied to a line headed by its entry.
UniProt P50583: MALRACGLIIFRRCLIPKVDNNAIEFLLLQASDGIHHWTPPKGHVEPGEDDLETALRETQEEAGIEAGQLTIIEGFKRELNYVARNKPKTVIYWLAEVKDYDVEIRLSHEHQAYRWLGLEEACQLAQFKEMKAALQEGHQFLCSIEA
UniProt O60551: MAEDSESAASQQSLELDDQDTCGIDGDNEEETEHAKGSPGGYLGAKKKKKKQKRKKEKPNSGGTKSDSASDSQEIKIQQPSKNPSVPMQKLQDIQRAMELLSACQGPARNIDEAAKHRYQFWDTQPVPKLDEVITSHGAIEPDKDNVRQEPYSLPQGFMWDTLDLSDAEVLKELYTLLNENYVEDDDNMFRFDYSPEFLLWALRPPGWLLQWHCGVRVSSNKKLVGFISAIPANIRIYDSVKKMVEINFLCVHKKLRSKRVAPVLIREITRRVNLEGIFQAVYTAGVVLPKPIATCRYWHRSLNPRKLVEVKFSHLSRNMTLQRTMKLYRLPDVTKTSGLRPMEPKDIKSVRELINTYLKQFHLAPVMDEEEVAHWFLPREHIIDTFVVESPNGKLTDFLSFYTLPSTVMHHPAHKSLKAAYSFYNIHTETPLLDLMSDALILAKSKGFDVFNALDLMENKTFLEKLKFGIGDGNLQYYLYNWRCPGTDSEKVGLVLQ
UniProt Q9HBL8: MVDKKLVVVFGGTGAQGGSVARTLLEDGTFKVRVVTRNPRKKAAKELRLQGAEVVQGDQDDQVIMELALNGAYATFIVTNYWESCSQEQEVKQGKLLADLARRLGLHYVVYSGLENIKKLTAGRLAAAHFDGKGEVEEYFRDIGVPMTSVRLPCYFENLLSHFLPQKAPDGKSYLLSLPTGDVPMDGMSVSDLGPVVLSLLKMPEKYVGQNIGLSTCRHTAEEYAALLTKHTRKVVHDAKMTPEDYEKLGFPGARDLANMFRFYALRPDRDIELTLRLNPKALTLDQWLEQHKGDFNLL
UniProt Q96CB9: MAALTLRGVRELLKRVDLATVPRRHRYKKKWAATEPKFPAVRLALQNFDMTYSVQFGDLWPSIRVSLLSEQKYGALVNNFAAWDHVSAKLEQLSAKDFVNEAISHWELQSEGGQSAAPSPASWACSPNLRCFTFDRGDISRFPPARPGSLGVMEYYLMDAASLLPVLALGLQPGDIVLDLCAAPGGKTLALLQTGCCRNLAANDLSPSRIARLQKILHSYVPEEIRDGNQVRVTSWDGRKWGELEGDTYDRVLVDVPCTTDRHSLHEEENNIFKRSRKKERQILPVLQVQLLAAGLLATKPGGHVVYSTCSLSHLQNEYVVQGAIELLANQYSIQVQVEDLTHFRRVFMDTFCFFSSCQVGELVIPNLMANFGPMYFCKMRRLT
UniProt P48645: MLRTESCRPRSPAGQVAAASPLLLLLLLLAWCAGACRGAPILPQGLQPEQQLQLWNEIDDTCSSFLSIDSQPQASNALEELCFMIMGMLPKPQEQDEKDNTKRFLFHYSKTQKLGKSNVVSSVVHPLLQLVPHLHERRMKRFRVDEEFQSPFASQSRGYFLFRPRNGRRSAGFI
UniProt Q12980: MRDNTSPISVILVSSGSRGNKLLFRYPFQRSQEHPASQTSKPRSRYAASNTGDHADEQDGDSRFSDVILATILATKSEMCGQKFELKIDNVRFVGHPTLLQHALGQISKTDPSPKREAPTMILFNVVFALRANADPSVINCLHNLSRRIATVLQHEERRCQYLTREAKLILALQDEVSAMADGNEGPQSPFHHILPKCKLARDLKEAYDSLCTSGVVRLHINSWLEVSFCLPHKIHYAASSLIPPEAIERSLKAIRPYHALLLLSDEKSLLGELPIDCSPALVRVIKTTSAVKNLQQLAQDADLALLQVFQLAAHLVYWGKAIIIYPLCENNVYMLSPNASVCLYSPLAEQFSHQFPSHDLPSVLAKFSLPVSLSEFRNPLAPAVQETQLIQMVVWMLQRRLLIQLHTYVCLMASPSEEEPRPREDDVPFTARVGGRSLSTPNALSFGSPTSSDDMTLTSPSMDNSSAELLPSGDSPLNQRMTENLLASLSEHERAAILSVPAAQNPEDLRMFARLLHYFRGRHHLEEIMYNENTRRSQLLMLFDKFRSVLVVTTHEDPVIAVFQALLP
UniProt P53370: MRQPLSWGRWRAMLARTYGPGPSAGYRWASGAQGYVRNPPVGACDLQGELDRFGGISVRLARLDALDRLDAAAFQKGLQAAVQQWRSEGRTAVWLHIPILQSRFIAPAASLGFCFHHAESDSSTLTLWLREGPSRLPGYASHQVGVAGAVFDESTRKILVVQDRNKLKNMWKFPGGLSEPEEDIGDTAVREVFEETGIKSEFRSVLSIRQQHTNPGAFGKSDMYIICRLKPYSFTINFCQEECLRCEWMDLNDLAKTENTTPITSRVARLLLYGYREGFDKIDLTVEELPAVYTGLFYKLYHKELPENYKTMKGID
UniProt Q96AB6: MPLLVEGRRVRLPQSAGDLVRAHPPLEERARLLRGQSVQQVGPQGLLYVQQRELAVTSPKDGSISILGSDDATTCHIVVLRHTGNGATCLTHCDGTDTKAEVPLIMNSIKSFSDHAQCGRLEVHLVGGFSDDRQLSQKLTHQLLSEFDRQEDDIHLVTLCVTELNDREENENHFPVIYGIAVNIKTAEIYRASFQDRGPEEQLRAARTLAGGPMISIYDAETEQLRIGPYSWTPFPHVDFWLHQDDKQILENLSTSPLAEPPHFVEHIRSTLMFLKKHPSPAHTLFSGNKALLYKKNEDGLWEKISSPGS
UniProt P46531, whole entry, looked up: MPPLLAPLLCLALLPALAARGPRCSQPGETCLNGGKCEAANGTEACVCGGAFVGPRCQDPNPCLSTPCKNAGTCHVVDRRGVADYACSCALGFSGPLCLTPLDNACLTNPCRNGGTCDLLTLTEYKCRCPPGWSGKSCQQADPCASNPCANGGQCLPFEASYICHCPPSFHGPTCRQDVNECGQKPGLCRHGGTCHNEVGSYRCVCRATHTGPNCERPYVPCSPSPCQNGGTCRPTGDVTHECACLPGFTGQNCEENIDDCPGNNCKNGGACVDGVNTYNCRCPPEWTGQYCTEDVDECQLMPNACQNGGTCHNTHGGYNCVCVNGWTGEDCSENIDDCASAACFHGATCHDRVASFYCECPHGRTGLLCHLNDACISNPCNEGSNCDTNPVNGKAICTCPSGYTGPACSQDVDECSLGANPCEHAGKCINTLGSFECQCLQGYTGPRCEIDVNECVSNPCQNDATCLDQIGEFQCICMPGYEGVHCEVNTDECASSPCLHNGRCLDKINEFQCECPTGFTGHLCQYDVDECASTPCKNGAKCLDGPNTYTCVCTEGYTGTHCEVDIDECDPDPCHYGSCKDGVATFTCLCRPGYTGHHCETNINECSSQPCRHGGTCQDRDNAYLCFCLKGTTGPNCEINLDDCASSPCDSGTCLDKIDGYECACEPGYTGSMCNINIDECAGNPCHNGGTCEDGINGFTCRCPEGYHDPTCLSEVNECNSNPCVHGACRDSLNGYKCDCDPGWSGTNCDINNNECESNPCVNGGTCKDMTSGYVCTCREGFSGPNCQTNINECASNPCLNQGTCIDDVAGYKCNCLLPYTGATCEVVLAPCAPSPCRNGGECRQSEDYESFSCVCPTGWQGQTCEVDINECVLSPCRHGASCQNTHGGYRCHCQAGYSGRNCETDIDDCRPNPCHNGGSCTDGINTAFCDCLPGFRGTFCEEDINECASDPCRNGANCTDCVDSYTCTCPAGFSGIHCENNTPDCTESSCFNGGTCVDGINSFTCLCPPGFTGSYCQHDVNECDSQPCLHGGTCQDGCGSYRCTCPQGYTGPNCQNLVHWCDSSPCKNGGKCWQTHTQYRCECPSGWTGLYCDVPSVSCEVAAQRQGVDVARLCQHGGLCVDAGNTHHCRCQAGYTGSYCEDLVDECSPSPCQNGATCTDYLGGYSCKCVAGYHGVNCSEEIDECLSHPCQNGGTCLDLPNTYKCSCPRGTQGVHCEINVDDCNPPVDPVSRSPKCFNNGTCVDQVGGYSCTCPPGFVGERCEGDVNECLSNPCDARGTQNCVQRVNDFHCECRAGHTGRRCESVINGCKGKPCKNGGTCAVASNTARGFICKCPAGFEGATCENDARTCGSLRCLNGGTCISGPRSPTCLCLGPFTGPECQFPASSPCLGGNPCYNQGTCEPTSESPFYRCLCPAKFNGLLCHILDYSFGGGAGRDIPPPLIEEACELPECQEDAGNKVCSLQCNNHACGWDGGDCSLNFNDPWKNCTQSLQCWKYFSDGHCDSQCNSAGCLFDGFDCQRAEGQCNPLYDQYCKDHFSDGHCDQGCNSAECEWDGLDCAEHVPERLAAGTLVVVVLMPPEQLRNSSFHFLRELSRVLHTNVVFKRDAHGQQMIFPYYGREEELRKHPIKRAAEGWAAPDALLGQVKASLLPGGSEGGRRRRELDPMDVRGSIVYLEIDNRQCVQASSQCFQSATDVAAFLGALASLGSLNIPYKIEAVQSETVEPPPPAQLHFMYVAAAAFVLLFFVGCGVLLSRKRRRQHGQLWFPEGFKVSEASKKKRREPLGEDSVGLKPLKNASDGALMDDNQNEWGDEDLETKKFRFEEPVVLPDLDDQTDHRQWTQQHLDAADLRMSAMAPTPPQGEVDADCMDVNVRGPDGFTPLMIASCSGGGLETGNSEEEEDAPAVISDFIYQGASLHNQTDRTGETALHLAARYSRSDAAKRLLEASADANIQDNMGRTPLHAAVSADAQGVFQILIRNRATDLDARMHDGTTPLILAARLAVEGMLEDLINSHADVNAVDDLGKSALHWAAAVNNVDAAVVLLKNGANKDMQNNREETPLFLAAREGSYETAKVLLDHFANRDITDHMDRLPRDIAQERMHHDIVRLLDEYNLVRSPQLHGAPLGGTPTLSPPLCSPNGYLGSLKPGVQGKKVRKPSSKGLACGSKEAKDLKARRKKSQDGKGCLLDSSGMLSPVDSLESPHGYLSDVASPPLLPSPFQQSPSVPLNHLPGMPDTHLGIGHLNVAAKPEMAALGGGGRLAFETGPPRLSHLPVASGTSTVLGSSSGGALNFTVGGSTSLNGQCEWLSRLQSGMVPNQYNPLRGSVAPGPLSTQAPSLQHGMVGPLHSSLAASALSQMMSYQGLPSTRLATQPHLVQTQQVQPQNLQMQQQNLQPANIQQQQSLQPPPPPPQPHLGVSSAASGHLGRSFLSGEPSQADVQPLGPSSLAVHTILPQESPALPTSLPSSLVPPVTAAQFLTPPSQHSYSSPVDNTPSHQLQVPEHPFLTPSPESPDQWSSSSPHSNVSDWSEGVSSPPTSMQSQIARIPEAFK
UniProt Q96IY1: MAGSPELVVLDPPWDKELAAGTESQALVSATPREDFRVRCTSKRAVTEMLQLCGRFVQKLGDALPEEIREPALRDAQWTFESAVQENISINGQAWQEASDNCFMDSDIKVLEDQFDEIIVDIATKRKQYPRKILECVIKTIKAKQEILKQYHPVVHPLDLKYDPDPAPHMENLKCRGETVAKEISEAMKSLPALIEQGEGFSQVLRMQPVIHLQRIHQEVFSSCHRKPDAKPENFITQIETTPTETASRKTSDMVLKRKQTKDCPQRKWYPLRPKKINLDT
UniProt Q9BVI4: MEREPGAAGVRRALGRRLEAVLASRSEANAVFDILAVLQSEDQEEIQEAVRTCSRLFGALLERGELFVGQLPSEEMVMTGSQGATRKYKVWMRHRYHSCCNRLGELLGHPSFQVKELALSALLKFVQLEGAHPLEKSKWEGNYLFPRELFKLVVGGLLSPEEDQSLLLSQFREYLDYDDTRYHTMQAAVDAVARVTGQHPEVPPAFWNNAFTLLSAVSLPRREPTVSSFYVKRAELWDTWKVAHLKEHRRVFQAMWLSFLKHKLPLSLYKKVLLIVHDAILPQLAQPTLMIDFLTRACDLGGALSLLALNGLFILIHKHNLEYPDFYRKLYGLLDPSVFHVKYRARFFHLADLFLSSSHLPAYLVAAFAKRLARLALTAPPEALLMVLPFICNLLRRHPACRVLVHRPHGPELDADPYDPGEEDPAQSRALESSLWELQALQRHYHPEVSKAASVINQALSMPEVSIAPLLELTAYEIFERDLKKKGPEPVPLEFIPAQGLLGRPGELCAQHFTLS

Tests used:
Assay in all cases: log2 fold change, soluble protein after heating vs DMSO (PISA); higher = thermal stabilisation; K562 lysate, 10 uM; active = over 0.2 and 3.5 SD of the protein, either way, in both replicates (recomputed)
erlotinib = compound: C#Cc1cccc(Nc2ncnc3cc(OCCOC)c(OCCOC)cc23)c1 [erlotinib]
How it was run: (§1)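 Pellets of K562 cells were dounce-homogenised in PBS pH 7.4 with 1 mM MgCl2, and the crude extract was held at 1 mg/mL protein for a 30 min treatment with 10 μM compound. Aliquots were heated for 3 min over 48°C-58°C and pooled before NP-40 was added to 0.5% at 4°C. The supernatant from 21,000xg for 90 min was quantified by TMTpro 16plex LC-MS/MS with channel sums equalised. Values are reported from duplicates as log-two fold change in thermal stability relative to solvent controls.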

[1] = compound: C/C(=N\NC(=O)C1=CC(=CC=C1)S(=O)(=O)N2CCOCC2)/C3=C(C=CC(=C3)Cl)O
How it was run: as §1

[2] = compound: C1=CC(=CC=C1C2=NC3=C(N2)C=C(C=C3)C(=O)N)OC4=CC=C(C=C4)Cl
How it was run: as §1

[3] = compound: C1=CC2=C(C=CC(=C2)/C=C\3/C(=O)NC(=NCC4=CC=CS4)S3)N=C1
How it was run: as §1

[4] = compound: C1=CC2=NC=CN=C2C=C1/C=C/3\C(=O)NC(=O)S3
How it was run: as §1

[5] = compound: C1=CC=C(C=C1)C2=NC(=C(N2)C3=CC=NC=C3)C4=CC(=C(C=C4)Cl)O
How it was run: as §1

[6] = compound: C1=CC=C2C(=C1)C3=NNC4=CC=CC(=C43)C2=O
How it was run: as §1

[7] = compound: C1CCN(C1)C(=O)NC2=CC=CC(=C2)NC3=NC=C(C(=N3)NCCC4=CN=CN4)Br
How it was run: as §1

[8] = compound: C1CN(CCC1(CC2=CC=C(C=C2)Cl)N)C3=NC=NC4=C3C=CN4
How it was run: as §1

IRAK-1-4 Inhibitor I = compound: C1COCCN1CCN2C3=CC=CC=C3N=C2NC(=O)C4=CC(=CC=C4)[N+](=O)[O-] [IRAK-1-4 Inhibitor I]
How it was run: as §1

ibrutinib = compound: C=CC(=O)N1CCC[C@@H](n2nc(-c3ccc(Oc4ccccc4)cc3)c3c(N)ncnc32)C1 [ibrutinib]
How it was run: as §1

[9] = compound: CC(=O)c1cnc2ccc(-c3cc(Cl)c(O)c(Cl)c3)nc2c1N[C@H]1CC[C@H](CN(C)C)CC1
How it was run: as §1

ralimetinib = compound: CC(C)(C)Cn1c(N)nc2ccc(-c3[nH]c(C(C)(C)C)nc3-c3ccc(F)cc3)nc21 [ralimetinib]
How it was run: as §1

[10] = compound: CC(C)(O)CC(=O)NCCn1ccc2ncnc(Nc3ccc(Oc4cccc(C(F)(F)F)c4)c(Cl)c3)c21
How it was run: as §1

[11] = compound: CC(C)C1=C2N=C(C=C(N2N=C1)NCC3=CC=CC=C3)NCCCCCCN
How it was run: as §1

[12] = compound: CC1=C(C(CC(=O)N1)C2=CC=C(C=C2)C(F)(F)F)C(=O)NC3=C(C=C4C(=C3)C=NN4)F
How it was run: as §1

[13] = compound: CC1=C(C2=C(C=C1)C(=O)C3=CC=CC=C3N2CCCN)C
How it was run: as §1

[14] = compound: CC1=C(C=C(C=C1)NC(=O)C2=CC(=CC=C2)C(C)(C)C#N)NC3=CC4=C(C=C3)N=CN(C4=O)C
How it was run: as §1

[15] = compound: CC1=C(C=C(C=C1)NC(=O)C2=CC(=CC=C2)N(C)C)NC(=O)C3=CC=C(C=C3)O
How it was run: as §1

[16] = compound: CC1=CC=C(C=C1)SC2=C3C=C(SC3=CN=C2)C(=O)N
How it was run: as §1

Measured: log2 fold change

NUDT2 (UniProt P50583)
inactive: erlotinib 0.034 | [1] 0.051 | [2] -0.045 | [3] -0.025 | [4] -0.014 | [5] 0.041 | [6] 0.068 | [7] 0.017 | [8] -0.027 | IRAK-1-4 Inhibitor I -0.001 | ibrutinib -0.036 | [9] 0.013 | ralimetinib 0.034 | [10] -0.015 | [11] -0.027 | [12] -0.06 | [13] -0.003 | [14] 0.031 | [15] -0.021 | [16] 0

NMT2 (UniProt O60551)
inactive: erlotinib 0.024 | [1] -0.025 | [2] 0.094 | [3] 0.006 | [4] -0.007 | [5] -0.003 | [6] 0.001 | [7] 0.011 | [8] -0.062 | IRAK-1-4 Inhibitor I 0.052 | ibrutinib -0.012 | [9] 0 | ralimetinib -0.019 | [10] -0.016 | [11] 0.005 | [12] -0.042 | [13] -0.007 | [14] -0.007 | [15] 0.018 | [16] 0.026

NMRAL1 (UniProt Q9HBL8)
inactive: erlotinib 0.008 | [1] 0.012 | [2] -0.111 | [3] -0.011 | [4] -0.037 | [5] -0.054 | [6] 0.141 | [7] 0.024 | [8] 0.001 | IRAK-1-4 Inhibitor I -0.02 | ibrutinib 0.122 | [9] 0.021 | ralimetinib 0.06 | [10] 0.012 | [11] -0.03 | [12] 0.047 | [13] -0.048 | [14] -0.01 | [15] -0.016 | [16] 0

NSUN4 (UniProt Q96CB9)
inactive: erlotinib 0.025 | [1] -0.376 | [2] 0.101 | [3] 0.207 | [4] 0 | [5] 0.359 | [6] 0.218 | IRAK-1-4 Inhibitor I 0.133 | ibrutinib -0.026 | [9] -0.087 | ralimetinib 0.108 | [10] -0.089 | [11] 0.177 | [12] -0.099 | [13] -0.09 | [14] -0.023 | [15] -0.034 | [16] 0.228

NMU (UniProt P48645)
inactive: erlotinib -0.052 | [1] -0.006 | [2] 0.11 | [3] 0.018 | [6] -0.187 | [7] -0.079 | [8] -0.049 | [11] 0.096 | [14] -0.063

NSA2 (UniProt O95478)
inactive: erlotinib -0.015 | [1] -0.15 | [2] 0.009 | [3] -0.102 | [4] -0.05 | [5] -0.002 | [6] -0.016 | [7] 0.157 | [8] 0.109 | IRAK-1-4 Inhibitor I -0.006 | ibrutinib 0.154 | [9] 0.068 | ralimetinib 0.012 | [10] 0.082 | [11] 0.01 | [12] -0.043 | [13] 0.223 | [15] -0.155 | [16] -0.027

NPRL3 (UniProt Q12980)
inactive: erlotinib 0.043 | [1] -0.241 | [2] -0.096 | [3] -0.202 | [5] 0.169 | [6] -0.033 | IRAK-1-4 Inhibitor I -0.093 | ralimetinib -0.166 | [10] -0.081 | [11] 0.05 | [12] 0.007 | [14] 0.057 | [15] 0.036

NUDT6 (UniProt P53370)
inactive: erlotinib -0.01 | [1] 0.113 | [2] -0.02 | [5] -0.008 | [6] 0.111 | [7] -0.06 | [8] 0.06 | IRAK-1-4 Inhibitor I 0.032 | ralimetinib 0.065 | [10] -0.033 | [11] 0.054 | [13] 0.169 | [14] 0.011 | [15] -0.042
active: [3] -0.518

NTAN1 (UniProt Q96AB6)
inactive: erlotinib 0.094 | [1] 0.08 | [2] -0.01 | [3] 0.22 | [4] -0.022 | [5] -0.026 | [6] -0.099 | [7] -0.378 | [8] 0.159 | IRAK-1-4 Inhibitor I 0 | ibrutinib 0.085 | ralimetinib -0.028 | [10] -0.123 | [11] -0.014 | [13] 0.022 | [14] 0.012 | [15] -0.007

NOTCH1 (UniProt P46531)
inactive: erlotinib -0.039 | [1] -0.017 | [2] 0.054 | [3] -0.084 | [5] -0.105 | [6] -0.091 | [7] 0.055 | [8] -0.214 | IRAK-1-4 Inhibitor I 0.108 | [9] 0.034 | ralimetinib 0.008 | [10] -0.124 | [11] -0.124 | [12] 0.009 | [13] -0.073 | [14] 0 | [15] 0.026 | [16] -0.023

NSL1 (UniProt Q96IY1)
inactive: erlotinib 0.01 | [1] -0.004 | [2] 0.015 | [3] -0.001 | [4] -0.002 | [5] 0.01 | [6] 0.077 | [7] 0.001 | [8] -0.015 | IRAK-1-4 Inhibitor I 0.026 | ibrutinib -0.019 | [9] -0.002 | ralimetinib 0.003 | [10] -0.052 | [11] 0.011 | [12] -0.066 | [13] 0.023 | [14] 0.009 | [15] 0.008 | [16] 0.036

NOC4L (UniProt Q9BVI4)
inactive: erlotinib -0.014 | [1] 0.032 | [2] -0.055 | [3] -0.041 | [4] 0.045 | [5] -0.011 | [6] -0.063 | [7] -0.024 | [8] -0.079 | IRAK-1-4 Inhibitor I -0.018 | ibrutinib 0.001 | [9] -0.026 | ralimetinib 0.021 | [10] 0.049 | [11] 0.089 | [12] 0.018 | [13] -0.024 | [14] -0.017 | [15] 0.006 | [16] 0.039
